Our source for the binding values is article PMC9899405.

Test [1] deals with Sirtuin 3 (Sirt3) (human (endogenous in AGS)). Nature of the test: co-IP; endogenous proteins in AGS cells (Fig. S3H-I); immunoprecipitation, A/G beads, Western blot. (A western blot detects proteins with antibodies after separation by electrophoresis.)
The target is the same in test [2]. Nature of the test: co-IP; endogenous proteins; cell lysate immunoprecipitated with anti-Sirt3 antibody 12 h at 4 °C, A/G beads, IgG as control, Western blot; cell line not stated (Fig. 2G-H).

Results are given in words; binding and its absence hold for the method and conditions named. Binding seen in cells or lysates may run through a third protein. A result given as binding can be weak or reduced; the word gives no strength.

B1: Lon protease-1 (LONP1) (enzyme, UniProt P36776 68-959)
chain: FWEASSRGGGAFSGGEDASEGGAEEGAGGAGGSAGAGEGPVITALTPMTIPDVFPHLPLIAITRNPVFPRFIKIIEVKNKKLVELLRRKVRLAQPYVGVFLKRDDSNESDVVESLDEIYHTGTFAQIHEMQDLGDKLRMIVMGHRRVHISRQLEVEPEEPEAENKHKPRRKSKRGKKEAEDELSARHPAELAMEPTPELPAEVLMVEVENVVHEDFQVTEEVKALTAEIVKTIRDIIALNPLYRESVLQMMQAGQRVVDNPIYLSDMGAALTGAESHELQDVLEETNIPKRLYKALSLLKKEFELSKLQQRLGREVEEKIKQTHRKYLLQEQLKIIKKELGLEKDDKDAIEEKFRERLKELVVPKHVMDVVDEELSKLGLLDNHSSEFNVTRNYLDWLTSIPWGKYSNENLDLARAQAVLEEDHYGMEDVKKRILEFIAVSQLRGSTQGKILCFYGPPGVGKTSIARSIARALNREYFRFSVGGMTDVAEIKGHRRTYVGAMPGKIIQCLKKTKTENPLILIDEVDKIGRGYQGDPSSALLELLDPEQNANFLDHYLDVPVDLSKVLFICTANVTDTIPEPLRDRMEMINVSGYVAQEKLAIAERYLVPQARALCGLDESKAKLSSDVLTLLIKQYCRESGVRNLQKQVEKVLRKSAYKIVSGEAESVEVTPENLQDFVGKPVFTVERMYDVTPPGVVMGLAWTAMGGSTLFVETSLRRPQDKDAKGDKDGSLEVTGQLGEVMKESARIAYTFARAFLMQHAPANDYLVTSHIHLHVPEGATPKDGPSAGCTIVTALLSLAMGRPVRQNLAMTGEVSLTGKILPVGGIKEKTIAAKRAGVTCIVLPAENKKDFYDLAAFITEGLEVHFVEHYREIFDIAFPDEQAEALAVER
With B1, the binding entry in test [1] and in test [2] was “binds” in each case.
